Test results reported in PubChem BioAssay AID1671190 (National Center for Advancing Translational Sciences (NCATS), 2021).
Screen size: about 580,000 compounds; about 6,100 (1.1%) were called active. The inconclusive results got no clear call from the source; some entries with a clear call stand among them for comparison. Calls come from the whole dose curve; as a rule, active = well fitted inhibition curve with a large enough effect; inconclusive = small, poorly fitted or top-dose-only effect, or another doubt; inactive = no such curve, though single readings can be large or run the other way. Where the call is inconclusive, the potency comes from a doubtful curve fit.
% is set by controls: 0 for no effect and ±100 for the full control effect; potency is the fitted concentration of half-maximal effect.

Amino acid sequences for entries named in this document (tags omitted). A change or cut given only in a name is not applied to a line headed by its entry.
UniProt P18054: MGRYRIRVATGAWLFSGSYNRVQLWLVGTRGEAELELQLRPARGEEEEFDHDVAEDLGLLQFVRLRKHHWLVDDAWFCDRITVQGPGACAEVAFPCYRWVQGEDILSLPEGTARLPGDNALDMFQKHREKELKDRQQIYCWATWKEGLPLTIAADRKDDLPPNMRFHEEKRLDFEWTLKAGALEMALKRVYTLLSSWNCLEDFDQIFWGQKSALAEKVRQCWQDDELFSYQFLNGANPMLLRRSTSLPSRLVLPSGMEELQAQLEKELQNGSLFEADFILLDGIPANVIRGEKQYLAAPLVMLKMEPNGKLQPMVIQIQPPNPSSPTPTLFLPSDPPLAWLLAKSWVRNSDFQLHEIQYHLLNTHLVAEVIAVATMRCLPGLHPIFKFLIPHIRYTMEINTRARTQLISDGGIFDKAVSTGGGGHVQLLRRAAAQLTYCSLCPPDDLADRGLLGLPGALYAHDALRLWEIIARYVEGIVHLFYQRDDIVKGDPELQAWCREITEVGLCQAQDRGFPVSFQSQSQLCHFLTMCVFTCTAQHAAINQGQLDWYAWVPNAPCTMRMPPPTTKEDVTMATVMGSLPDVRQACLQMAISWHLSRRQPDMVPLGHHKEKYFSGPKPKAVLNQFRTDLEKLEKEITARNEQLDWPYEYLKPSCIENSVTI

What follows are compounds tested against Polyunsaturated fatty acid lipoxygenase ALOX12 (Homo sapiens) (UniProt P18054) (assay: Primary qHTS assay for inhibitors of human arachidonate 12S-lipoxygenase (ALOX12): Round 2). Conditions: purified 12hLO, xylenol orange hydroperoxide absorbance; activity change, negative = inhibition: at 108 µM (top of the series) unless noted.
Procedure, shortened: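 Purified human 12hLO at 150 nM in 25 mM Hepes, 0.01% Triton X-100, pH 7.0, preincubated 15 min at room temperature with compound. Reaction started with 40 uM arachidonic acid, 30 min at room temperature. Hydroperoxide measured by Fe-xylenol orange, 573/405 nm absorbance ratio.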
In the case of `Cc1cccc(C(=O)N2CCc3c([nH]c4ccccc34)C2CC(C)C)n1` (configuration not stated), the Potency was inconclusive: 31.6 µM [inhibitor, partial curve].
`O=c1sc2ccccc2c(N2CCOCC2)c1[N+](=O)[O-]` was tested, and the Potency was inconclusive: 79.4 µM [inhibitor, single point].
For `COc1cccc(S(=O)(=O)N2CCN(C3CCN(C)C3=O)CC2)c1` (configuration not stated), the Potency was inconclusive: 10 µM [inhibitor, partial curve].
In the case of `C=CCn1c2ccccc2c2nnc(SCCN3CCOCC3)nc21`, the Potency was inconclusive: 5.01 µM [inhibitor, full curve, poor fit].
For `Cn1nc(CC(=O)NCc2ccccc2CN2CCOCC2)c2ccccc2c1=O`, the Potency was inconclusive: 3.55 µM [inhibitor, full curve, poor fit].
For `CC1(c2ccc(Cl)cc2)NC(=O)N(CC(=O)Nc2ccc(N3CCCCC3)cc2)C1=O` (configuration not stated), the Potency was inconclusive: 22.4 µM [inhibitor, partial curve, poor fit].
`CCOc1ccc(CNC(=O)c2ncoc2-c2cccs2)cc1` was tested, and the Potency was “inactive”.
For `CN(CCc1ccccn1)[C@@H]1[C@H](O)[C@H](CO)O[C@@H]1CNC1CCOCC1`, the Potency was inconclusive: 10 µM [inhibitor, full curve, poor fit].
With `Cn1cc(CN2CCN(Cc3ccccc3)CC2)c(-c2cccc(Cl)c2)n1` the Potency was “inactive”.
For `Cc1ccc(C(=O)/C=C/Nc2ccc(S(=O)(=O)Nc3onc(C)c3C)cc2)cc1`, the Potency was inconclusive: 50.1 µM [inhibitor, partial curve, poor fit].
In the case of `COc1cc(/C=C(\C#N)c2nc3ccccc3[nH]2)ccc1OCc1cccc(C(F)(F)F)c1`, the Potency was inconclusive: 56.2 µM [inhibitor, partial curve, poor fit].
`Nc1c(C(=O)NCc2ccco2)c2nc3ccccc3nc2n1CCc1ccc(F)cc1` was tested, and the Potency was inconclusive: 39.8 µM [inhibitor, partial curve, poor fit].
In the case of `N#Cc1cccc(NC(=O)N[C@H]2[C@H](O)[C@@H](N3CCCC3)[C@@H]3OC[C@H]2O3)c1`, the Potency was inconclusive: 12.6 µM [inhibitor, full curve].
In the case of `Brc1ccc(C2=Nn3c(Cn4nnc5ccccc54)nnc3SC2)cc1`, the Potency was inconclusive: 100 µM [inhibitor, partial curve, poor fit].
In the case of `COc1ccc(C(=O)N2CCCC(c3nc(-c4ccc(OC)c(OC)c4)no3)C2)c(OC)c1` (configuration not stated), the Potency was “inactive”.
For `CCOC(=O)c1ccc(NC(=O)c2c(-c3ccc(OC)cc3)oc3ccc(OC)cc23)cc1`, the Potency was “inactive”.
With `COc1cccc(-n2c(-c3ccco3)nc3c(cnn3-c3ccc(C)c(C)c3)c2=O)c1` the Potency was “inactive”.
In the case of `Cc1cccc(C)c1-n1nnnc1C(c1cccs1)N1CCN(C/C=C/c2ccccc2)CC1` (configuration not stated), the Potency was inconclusive: 0.316 µM [inhibitor, full curve, poor fit].
For `CCN1C(=O)[C@H]2[C@@H](c3ccc(-c4ccc(OC)cc4)cc3)N[C@@](C)(C(=O)OC)[C@H]2C1=O`, the Potency was inconclusive: 100 µM [inhibitor, partial curve, poor fit].
In the case of `COc1ccc(Nc2nc(Nc3ccc(C)c(Cl)c3)c3nccnc3n2)cc1`, the Potency was inconclusive: 100 µM [inhibitor, single point].
In the case of `COc1ccc(F)cc1CN1CCN(CC(=O)Nc2ccccc2C(=O)NC2CC2)CC1`, the Potency was “inactive”.
`Cc1cccc(NC(=O)c2ccccc2Br)n1` was tested, and the Potency was inconclusive: 44.7 µM [inhibitor, partial curve, poor fit].
For `COc1cc(/C=N/NC(=O)CCn2c3ccccc3c3ccccc32)cc(OC)c1OC`, the Potency was “inactive”.
In the case of `COc1ccc(N2C(=O)[C@@H]3[C@H](C2=O)[C@H]2C=CC=NN2[C@@H]3C(=O)Nc2ccc(Cl)cc2)cc1`, the Potency was inconclusive: 12.6 µM [inhibitor, full curve, poor fit].
For `COC(=O)c1c(NC(=O)C(C)(C)C)sc2c1C(C(=O)OC)CC2` (configuration not stated), the Potency was “inactive”.
`CC(C)S(=O)(=O)c1csc(C(=O)NN)c1Cl` was tested, and the Potency was inconclusive: 2.24 µM [inhibitor, partial curve, poor fit].
For `Cc1oc(-c2ccccc2)nc1CC(=O)NCC(C)N1CCOCC1` (configuration not stated), the Potency was “inactive”.
For `Cc1cccc(C)c1-n1cccc1/C=C1/C(=N)N2C(=NC1=O)SN=C2S(C)(=O)=O`, the Potency was inconclusive: 63.1 µM [inhibitor, partial curve, poor fit].
`COc1ccc(C)cc1N(C(=O)c1snc(C(N)=O)c1N)C(C(=O)NC1CCCC1)c1ccc(F)cc1` (configuration not stated) was tested, and the Potency was “inactive”.
`O=C(c1cc(-c2ccco2)on1)N1CCCc2ccccc21` was tested, and the Potency was inconclusive: 56.2 µM [inhibitor, partial curve, poor fit].
`C=C(C)CN1CCN(Cc2ccc(C#N)cc2)CC1` was tested, and the Potency was “inactive”.
In the case of `Cc1cccc(N=C2NC(=O)/C(=C/C=C/c3ccco3)S2)c1`, the Potency was active: 44.7 µM.
For `COc1ccc(C2CC(=O)C(c3ccc(F)cc3)=CN2Cc2ccccc2)cc1` (configuration not stated), the Potency was “inactive”.
In the case of `C[C@H](CO)N1C[C@H](C)[C@@H](CN(C)C(=O)Nc2ccc(C(F)(F)F)cc2)Oc2c(NS(=O)(=O)c3cccs3)cccc2C1=O`, the Potency was “inactive”.
For `CCOc1ccccc1NC(=O)N1CCc2c(sc(C)c2CC)C1c1ccccc1` (configuration not stated), the Potency was inconclusive: 112 µM [inhibitor, partial curve, poor fit].
In the case of `C(#CCN1CCN(Cc2ccccc2)CC1)COCCOC(c1ccccc1)c1ccccc1`, the Potency was “inactive”.
For `Cc1ccc(N2CCN(S(=O)(=O)c3ccc(F)c(C)c3)CC2)c(C)c1`, the Potency was “inactive”.
In the case of `CN(C(=O)Cn1cc(S(=O)(=O)Cc2ccccc2Cl)c2ccccc21)c1ccccc1`, the Potency was inconclusive: 44.7 µM [inhibitor, partial curve].
`O=C1Cc2ccccc2C(=O)N1c1ccc(F)cc1Cl` was tested, and the Potency was inconclusive: 39.8 µM [inhibitor, partial curve, poor fit].
`CC(=O)n1c(-c2ccccc2)c(-c2ccccc2)n(C)c1=O` was tested, and the Potency was inconclusive: 25.1 µM [inhibitor, partial curve, poor fit].
With `Cn1c(SCC(=O)N2CCN(c3ccccc3)CC2)nnc1-c1ccccc1` the Potency was “inactive”.
For `N#C/C(=C/c1ccc(OC(F)F)cc1)C(=O)c1c[nH]c2cc(F)ccc12`, the Potency was inconclusive: 39.8 µM [inhibitor, partial curve, poor fit].
With `CCc1cc(Cn2nc(C(=O)O)cc2-c2ccccc2)on1` the Potency was inconclusive: 35.5 µM [inhibitor, partial curve, poor fit].
`CCOC(=O)c1cnc(SCC)[nH]c1=O` was tested, and the Potency was inconclusive: 35.5 µM [inhibitor, partial curve, poor fit].
For `C=CCn1c(C)nnc1SCC(=O)Nc1nccs1`, the Potency was inconclusive: 39.8 µM [inhibitor, partial curve, poor fit].
In the case of `COc1ccccc1-c1ccc2ncn(Cc3ccccc3)c(=O)c2n1`, the Potency was inconclusive: 10 µM [inhibitor, partial curve, poor fit].
For `O=C(c1ccc(F)c(F)c1)N(C1CCCCC1)C1CCCCC1`, the Potency was “inactive”.
In the case of `CCOC(=O)COc1nc(C(C)C)c2c(c1C#N)CCCC2`, the Potency was inconclusive: 44.7 µM [inhibitor, partial curve, poor fit].
In the case of `CCc1ccc(-c2nc(CS(=O)CC(=O)NCc3ccc4c(c3)OCO4)c(C)o2)cc1` (configuration not stated), the Potency was inconclusive: 44.7 µM [inhibitor, partial curve, poor fit].
With `COc1cc(OC)cc(C(=O)N2CCN(Cc3ccccc3C(F)(F)F)CC2)c1` the Potency was inconclusive: 0.501 µM [inhibitor, full curve, poor fit].
In the case of `COc1ccc(NC(=O)O[C@@H]2CO[C@H]3[C@@H]2OC[C@@H]3NS(=O)(=O)c2ccc(Cl)cc2)cc1`, the Potency was inconclusive: 2.24 µM [inhibitor, full curve, poor fit].
In the case of `Cc1cc(C)c(SCCc2ccncc2)c(C)c1`, the Potency was inconclusive: 3.98 µM [inhibitor, full curve, poor fit].
For `COc1ccc2c(c1)c(C(=O)CN1CCc3ccccc3C1)c(C)n2C`, the Potency was “inactive”.
`C=CCc1c(C)nc(N2CCSCC2)[nH]c1=O` was tested, and the Potency was inconclusive: 141 µM [inhibitor, single point].
In the case of `Cc1nc2ccc(NC(=S)N3CCCC3)cc2nc1C`, the activity change, negative = inhibition was inconclusive: -57.6% [inhibitor].
`CN1CCCN(S(=O)(=O)c2ccc3c(c2)CCC3)c2ccccc21` was tested, and the Potency was “inactive”.
`O=C(Nc1ccccc1F)Nc1ncc(Cl)cc1Cl` was tested, and the Potency was “inactive”.
`COc1cccc(CN2C(=O)CCCCC2C(=O)NCCc2nc3ccccc3n2C)c1` (configuration not stated) was tested, and the Potency was “inactive”.
`COC(=O)c1oc2ccccc2c1NC(=O)c1ccccc1O` was tested, and the Potency was inconclusive: 126 µM [inhibitor, partial curve, poor fit].
`Cn1cc([N+](=O)[O-])c(C(=O)NCc2ccccc2)n1` was tested, and the Potency was inconclusive: 25.1 µM [inhibitor, single point].
`Cc1nn(-c2ccc(F)cc2)c(C)c1NS(=O)(=O)c1ccc(Cl)cc1` was tested, and the Potency was inconclusive: 44.7 µM [inhibitor, partial curve, poor fit].
`CCN(CC)C(CNC(=O)C1CC2CCC1C2)c1ccsc1` (configuration not stated) was tested, and the Potency was “inactive”.
For `O=S(=O)(/C=C/C=C/S(=O)(=O)c1ccccc1)c1ccccc1`, the Potency was “inactive”.
In the case of `COC(=O)/C(=C\C=C\c1ccccc1)NC(=O)c1ccccc1`, the Potency was “inactive”.
In the case of `CCOC(=O)CN1C(=O)N[C@@H](c2ccccc2)[C@H](C(C)=O)[C@H]1C`, the Potency was inconclusive: 112 µM [inhibitor, single point].
With `Cc1cccc2nc(-c3c(-c4ccc(Br)cc4)n(C)c(=O)n(C)c3=O)cn12` the Potency was inconclusive: 20 µM [inhibitor, full curve, poor fit].
In the case of `COc1ccc(NC(=O)c2ccc(NC(=O)C3(C#N)CCCC3)cc2)cc1`, the Potency was “inactive”.
